Measurements reported in PubChem BioAssay AID1259308 (NCATS, 2017)
Purpose: 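Candidate targets for better recombinant protein yield in mammalian cells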 (primary screen). Cell system: human HEK293 embryonic kidney cells stably expressing firefly luciferase (HEK-CMV-Luc2-Hygro). Reagents: single siRNA against human genes, 0.8 pmol siRNA per well. Timing: 72 h. Measurement: 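Reporter luminescence and viable-cell signal on separate replicate plates, given as percent of non-targeting control and median/MAD z-scores, plus per-cell luciferase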. Scale: total luciferase, z-score and total luciferase, % of control: higher = more reporter protein produced. Call rule: 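An siRNA counts as active if its total luciferase robust z-score exceeds 3; genes with two or more such siRNAs out of three were retested with fresh siRNAs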. Meaning of the calls: active = raised luciferase; inactive = no rise.
This is one part, drawn at random, of about 59,000 deposited reagents. In the full data, about 1,510 (2.6%) were called active. 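Calls use total luciferase alone and ignore viability, so some active siRNAs may act by altering cell number.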 Entries without a mark were called inactive. The numbers tell different reagents against one gene apart. Further read-outs or replicates are left out here. Reagent sequences are not shown.

The first 3 entries as a preview:
| Gene | reagent | total luciferase, z-score | total luciferase, % of control |
| --- | --- | --- | --- |
| AGO1 (GeneID 26523) | 1 | -1.18 | 58.4 |
| AGO1 (GeneID 26523) | 2 | 0.853 | 98.8 |
| AGO1 (GeneID 26523) | 3 | -0.833 | 65.3 |

The list itself, repeating the preview:
| Gene | reagent | total luciferase, z-score | total luciferase, % of control |
| --- | --- | --- | --- |
| AGO1 (GeneID 26523) | 1 | -1.18 | 58.4 |
| AGO1 (GeneID 26523) | 2 | 0.853 | 98.8 |
| AGO1 (GeneID 26523) | 3 | -0.833 | 65.3 |
| DEFB136 (GeneID 613210) | 1 | 0.0465 | 82.8 |
| DEFB136 (GeneID 613210) | 2 | 0.807 | 97.9 |
| DEFB136 (GeneID 613210) | 3 | 0.189 | 85.6 |
| CENPB (GeneID 1059) | 1 | -1.03 | 61.5 |
| CENPB (GeneID 1059) | 2 | 0.213 | 86.1 |
| CENPB (GeneID 1059) | 3 | 0.494 | 91.7 |
| SH2D1B (GeneID 117157) | 1 | -1.21 | 57.7 |
| SH2D1B (GeneID 117157) | 2 | -0.504 | 71.9 |
| SH2D1B (GeneID 117157) | 3 | -0.0877 | 80.1 |
| LMO2 (GeneID 4005) | 1 | -0.191 | 78.1 |
| LMO2 (GeneID 4005) | 2 | 0.937 | 101 |
| LMO2 (GeneID 4005) | 3 | -0.846 | 65.1 |
| HAUS1 (GeneID 115106) | 1 | -2.56 | 31 |
| HAUS1 (GeneID 115106) | 2 | 2.85 | 139 |
| HAUS1 (GeneID 115106) | 3 | 0.0914 | 83.7 |
| GPD1L (GeneID 23171) | 1 | -0.00793 | 81.7 |
| GPD1L (GeneID 23171) | 2 | -0.156 | 78.8 |
| GPD1L (GeneID 23171) | 3 | 0.133 | 84.5 |
| ZDHHC20 (GeneID 253832) | 1 | 0.832 | 98.4 |
| ZDHHC20 (GeneID 253832) | 2 | 0.177 | 85.4 |
| ZDHHC20 (GeneID 253832) | 3 | 0.113 | 84.1 |
| TLDC2 (GeneID 140711) | 1 | 0.376 | 89.4 |
| TLDC2 (GeneID 140711) | 2 | -1.12 | 59.7 |
| TLDC2 (GeneID 140711) | 3 | 0.65 | 94.8 |
| NIBAN1 (GeneID 116496) | 1 | 1.53 | 112 |
| NIBAN1 (GeneID 116496) | 2 | 1.28 | 107 |
| NIBAN1 (GeneID 116496) | 3 | -0.377 | 74.4 |
| TARS3 (GeneID 123283) | 1 | 2.19 | 125 |
| TARS3 (GeneID 123283) | 2 | -0.516 | 71.6 |
| TARS3 (GeneID 123283) | 3 | -0.0888 | 80.1 |
| XTBD1P1 (GeneID 391169) | 1 | -0.432 | 73.3 |
| XTBD1P1 (GeneID 391169) | 2 | -0.787 | 66.2 |
| XTBD1P1 (GeneID 391169) | 3 | 0.0541 | 83 |
| STARD6 (GeneID 147323) | 1 | -1.31 | 55.9 |
| STARD6 (GeneID 147323) | 2 | 0.339 | 88.6 |
| STARD6 (GeneID 147323) | 3 | -1.02 | 61.7 |
| ALKBH5 (GeneID 54890) | 1 | 1.99 | 121 |
| ALKBH5 (GeneID 54890) | 2 | 0.151 | 84.9 |
| ALKBH5 (GeneID 54890) | 3 | -0.173 | 78.4 |
| LINC02909 (GeneID 196415) | 1 | 0.919 | 100 |
| LINC02909 (GeneID 196415) | 2 | -0.375 | 74.4 |
| LINC02909 (GeneID 196415) | 3 | -0.222 | 77.5 |
| ZW10 (GeneID 9183) | 1 | 0.865 | 99.1 |
| ZW10 (GeneID 9183) | 2 | 0.115 | 84.2 |
| ZW10 (GeneID 9183) | 3 | 0.145 | 84.8 |
| NIP7 (GeneID 51388) | 1 | -1.66 | 48.9 |
| NIP7 (GeneID 51388) | 2 | 2.56 | 133 |
| NIP7 (GeneID 51388) | 3 | -1.77 | 46.6 |
| RPS15 (GeneID 6209) | 1 | -2.52 | 31.8 |
| RPS15 (GeneID 6209) | 2 | -1.84 | 45.3 |
| RPS15 (GeneID 6209) | 3 | -0.679 | 68.4 |
| ANKRD33B (GeneID 651746) | 1 | 1.39 | 110 |
| ANKRD33B (GeneID 651746) | 2 | -1.59 | 50.3 |
| ANKRD33B (GeneID 651746) | 3 | 2.18 | 125 |
